Among the data in PMC6562482 are binding values, retold here.

By UniProt entry, the sequences of proteins in these tests, tags left out.
UniProt Q13619: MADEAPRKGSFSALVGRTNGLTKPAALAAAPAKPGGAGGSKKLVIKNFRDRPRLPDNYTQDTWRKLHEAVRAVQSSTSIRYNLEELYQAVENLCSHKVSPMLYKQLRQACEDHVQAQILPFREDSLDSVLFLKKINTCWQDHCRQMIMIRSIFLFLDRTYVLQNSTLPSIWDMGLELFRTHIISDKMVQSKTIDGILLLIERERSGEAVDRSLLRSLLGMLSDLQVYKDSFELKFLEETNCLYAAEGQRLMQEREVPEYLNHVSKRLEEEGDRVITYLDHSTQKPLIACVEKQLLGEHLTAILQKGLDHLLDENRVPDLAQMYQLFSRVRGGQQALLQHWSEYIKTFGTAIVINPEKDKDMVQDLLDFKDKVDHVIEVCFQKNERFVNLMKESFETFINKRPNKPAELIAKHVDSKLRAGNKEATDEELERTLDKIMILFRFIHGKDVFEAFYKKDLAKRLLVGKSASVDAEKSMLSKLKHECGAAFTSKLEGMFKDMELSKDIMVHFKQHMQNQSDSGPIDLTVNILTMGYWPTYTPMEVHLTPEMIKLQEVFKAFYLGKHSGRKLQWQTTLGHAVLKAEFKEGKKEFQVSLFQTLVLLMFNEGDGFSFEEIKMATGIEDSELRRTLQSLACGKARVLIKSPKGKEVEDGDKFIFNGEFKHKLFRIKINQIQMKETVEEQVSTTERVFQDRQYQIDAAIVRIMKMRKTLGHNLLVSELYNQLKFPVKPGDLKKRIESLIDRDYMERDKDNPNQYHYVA

The target in this assay is Cullin 4A (Cul4A), myc-his tagged (pBabe-Cul4A-myc-his) (UniProt Q13619). Nature of the assay: co-IP; reciprocal immunoprecipitation from 293T cells co-transfected with pBabe-Cul4A-myc-his and pCMV6-ANXA10-GFP; 10 ug/mL MG132 for 24 h before lysis; NP-40 lysis buffer (150 mM NaCl, 50 mM Tris pH 8.0, 1% NP40); Catch and Release v2.0 system; anti-GFP and anti-Cul4A (legend: anti-His tag) antibodies for the immunoprecipitation.

Results are given in words; binding and its absence hold for the method and conditions named. Binding seen in cells or lysates may run through a third protein. Some entries that bind do so weakly or less than the wild type. Where a sequence is shown, tags or fusion partners need not be part of it.

B1: Annexin A10 (ANXA10), GFP tagged (pCMV6-ANXA10-GFP, OriGene) (protein, UniProt Q9UJ72 1-324)
chain: MFCGDYVQGTIFPAPNFNPIMDAQMLGGALQGFDCDKDMLINILTQRCNAQRMMIAEAYQSMYGRDLIGDMREQLSDHFKDVMAGLMYPPPLYDAHELWHAMKGVGTDENCLIEILASRTNGEIFQMREAYCLQYSNNLQEDIYSETSGHFRDTLMNLVQGTREEGYTDPAMAAQDAMVLWEACQQKTGEHKTMLQMILCNKSYQQLRLVFQEFQNISGQDMVDAINECYDGYFQELLVAIVLCVRDKPAYFAYRLYSAIHDFGFHNKTVIRILIARSEIDLLTIRKRYKERYGKSLFHDIRNFASGHYKKALLAICAGDAEDY
On to B1, for which the binding entry is given as “binds”.
